Among all 300,000 compounds or so, about 3,700 (1.2%) were called active. The shares of active, inactive and inconclusive entries below differ from those in the screen. The call rests on the fitted dose curve; tested in HEK293 cells. Potencies beside an inconclusive call are fits to weak or partial responses and may not hold up.
Assay: qHTS for Inhibitors of binding or entry into cells for Lassa Virus; further: nearly all actives have a fitted effect of over 50% in size
Details: Lassa virus pseudotype entry inhibition, cell reporter; series mostly up to 37.9 µM
Potency means the concentration at half of the fitted maximal effect.

Q: With `O=C(CF)N(O)c1ccc(C=Cc2ccccc2)cc1` as the compound, how does the Potency read?
A: Its Potency is active: 1.12 µM.

Q: Which Potency does the source give for `O=C(C1CCCN(S(=O)(=O)c2ccc(Br)cc2)C1)N1CCN(Cc2ccccc2)CC1` (stereo unspecified) here?
A: Its Potency is inconclusive: 20 µM [inhibitor, partial curve, poor fit].

Q: With `CN1CCCN(Cc2nc(-c3cccc(C(F)(F)F)c3)no2)CC1` as the compound, how does the Potency read?
A: Its Potency is “inactive”.

Q: Which Potency does the source give for `CCN(CC)C(=O)c1ccc(NC(=O)c2cc(-n3cnnc3)ccc2Cl)cc1` here?
A: The Potency was inconclusive: 25.9 µM [activator, partial curve, poor fit].

Q: With `O=C1OCCC1Sc1nc2ccccc2n1-c1ccccc1` (stereo unspecified) as the compound, how does the Potency read?
A: Its Potency is “inactive”.

Q: With `COc1ccc(OC)c(NC(=O)Cc2nn(C)c(=O)c3ccccc23)c1` as the compound, how does the Potency read?
A: The Potency was “inactive”.

Q: For `O=C(CSc1nnc(-c2ccc(Cl)cc2)n1Cc1ccco1)c1cccs1`, which Potency is on record?
A: The Potency was “inactive”.

Q: Which Potency does the source give for `Cc1ccc(S(=O)(=O)Cc2csc(N)n2)cc1` here?
A: The Potency was “inactive”.

Q: For `O=C(Nc1ccc(F)cc1F)c1cc2nc3c(c(C(F)(F)F)n2n1)CCCC3`, which Potency is on record?
A: Its Potency is “inactive”.

Q: For `Cc1ccc(CN2CCC(C(=O)Nc3ccc(Oc4cccnc4)cc3)CC2)cc1`, which Potency is on record?
A: The Potency was inconclusive: 0.501 µM [inhibitor, full curve, poor fit].

Q: With `Cc1nc(SCC(=O)Nc2cccc(Cl)c2)n[nH]1` as the compound, how does the Potency read?
A: The Potency was “inactive”.

Q: For `Cc1cc(C)c(-c2csc(NC(=O)C3=COCCO3)n2)cc1C`, which Potency is on record?
A: Its Potency is inconclusive: 1.26 µM [inhibitor, single point].

Q: With `COc1cccc(CN(C)Cc2c(O)ccc3ccccc23)c1` as the compound, how does the Potency read?
A: The Potency was “inactive”.

Q: For `COc1ccc(C(=O)NC(=S)Nc2ccc(CN3CCOCC3)cc2)cc1`, which Potency is on record?
A: The Potency was inconclusive: 22.4 µM [inhibitor, single point].

Q: With `CCc1ccccc1N1CC(c2nc3ccccc3n2CCCCOc2ccccc2OC)CC1=O` (stereo unspecified) as the compound, how does the Potency read?
A: Its Potency is inconclusive: 1 µM [inhibitor, partial curve, poor fit].

Q: Which Potency does the source give for `COc1ccc(S(=O)(=O)Nc2ccc3cn[nH]c3c2)cc1C` here?
A: The Potency was “inactive”.

Q: Which Potency does the source give for `O=C(C/C(=N\NC(=O)c1ccccc1Br)C(F)(F)F)c1cccs1` here?
A: Its Potency is inconclusive: 25.1 µM [inhibitor, single point].

Q: Which Potency does the source give for `Cc1nnc(SCc2c(Cl)cccc2Cl)n(N)c1=O` here?
A: Its Potency is “inactive”.

Q: Which Potency does the source give for `CCC(C)n1c(O)c(/C=N/Nc2ccccc2)c(=O)[nH]c1=S` (stereo unspecified) here?
A: Its Potency is inconclusive: 29.1 µM [inhibitor, single point].

Q: With `COc1cnc(-c2ccccn2)nc1NC(C)C` as the compound, how does the Potency read?
A: Its Potency is inconclusive: 25.1 µM [inhibitor, single point].

Q: With `Cc1ccccc1C(C(=O)NC1CCCCC1)N(C(=O)c1ccccn1)c1cccnc1` (stereo unspecified) as the compound, how does the Potency read?
A: The Potency was inconclusive: 35.5 µM [inhibitor, single point].

Q: For `O=c1/c(=C\c2ccc(F)cc2)sc2n1CCCN=2`, which Potency is on record?
A: Its Potency is inconclusive: 35.5 µM [activator, single point].

Q: For `O=S(=O)(NCC(c1ccco1)S(=O)(=O)c1ccccc1)c1cc(F)ccc1F` (stereo unspecified), which Potency is on record?
A: The Potency was “inactive”.

Q: For `Cc1nc(SC(C)C(=O)NCC2CCCO2)c2cc(-c3ccccc3)sc2n1` (stereo unspecified), which Potency is on record?
A: Its Potency is active: 0.501 µM.

Q: For `CCC(=O)Nc1cccc(NC(=O)COc2ccc(OC)cc2)c1`, which Potency is on record?
A: The Potency was inconclusive: 6.31 µM [activator, partial curve, poor fit].

Q: Which Potency does the source give for `CSc1ncccc1C(=O)OCc1ccccc1` here?
A: The Potency was inconclusive: 31.6 µM [activator, single point].

Q: Which Potency does the source give for `N/C(=N\OC(=O)c1ccc(Cl)cc1)c1cccnc1` here?
A: The Potency was inconclusive: 2.51 µM [activator, partial curve, poor fit].

Q: Which Potency does the source give for `CN(C)CCCNc1oc(-c2ccc(Cl)cc2)nc1C#N` here?
A: Its Potency is inconclusive: 7.08 µM [activator, full curve, poor fit].

Q: Which Potency does the source give for `Cc1ccc(NC(=O)NC2CCCCC2)c(C)c1` here?
A: The Potency was inconclusive: 23.1 µM [activator, partial curve, poor fit].

Q: Which Potency does the source give for `Cc1ccccc1C(=O)NCC(c1ccc(N(C)C)cc1)N1CCCC1` (stereo unspecified) here?
A: The Potency was “inactive”.

Q: For `Cc1nc(Oc2ccccc2)c2oc3ccccc3c2n1`, which Potency is on record?
A: Its Potency is inconclusive: 8.91 µM [inhibitor, partial curve, poor fit].

Q: Which Potency does the source give for `Fc1ccc(Nc2nc(SCc3ccc(Cl)cc3)nc3ccccc23)cc1` here?
A: The Potency was inconclusive: 35.5 µM [activator, single point].

Q: With `O=C(COC(=O)c1ccc2ccccc2n1)c1ccc(F)cc1` as the compound, how does the Potency read?
A: The Potency was inconclusive: 3.16 µM [activator, full curve, poor fit].

Q: With `O=C(Nc1ccc(Oc2ccc(C(F)(F)F)cn2)c(Cl)c1)C1CC1` as the compound, how does the Potency read?
A: Its Potency is inconclusive: 31.6 µM [inhibitor, single point].

Q: With `COc1ccccc1Nc1nc(-c2c(C)nc3ncccn23)cs1` as the compound, how does the Potency read?
A: The Potency was inconclusive: 10 µM [inhibitor, partial curve, poor fit].

Q: For `O=C1C=C(Nc2ccc(Cl)cc2)CC(c2ccccc2)C1` (stereo unspecified), which Potency is on record?
A: Its Potency is inconclusive: 0.891 µM [inhibitor, full curve, poor fit].

Q: Which Potency does the source give for `Cc1cc(C)c(C2C(C#N)=C(N)Oc3n[nH]c(C)c32)cc1CN1CCOCC1` (stereo unspecified) here?
A: The Potency was “inactive”.

Q: For `CSc1nc2ncc(C#N)cn2n1`, which Potency is on record?
A: The Potency was inconclusive: 1 µM [activator, full curve, poor fit].

Q: With `C/C(=N/NC(=O)Cc1ccccc1)c1ccc(C)s1` as the compound, how does the Potency read?
A: Its Potency is inconclusive: 0.651 µM [activator, single point].

Q: Which Potency does the source give for `COc1cccc(/C=N/NC(=O)C(=O)N2CCCCCC2)c1O` here?
A: Its Potency is inconclusive: 35.5 µM [inhibitor, single point].

Q: Which Potency does the source give for `COc1ccccc1NC(=O)N1CC(=O)Nc2sc3c(c2C1c1ccccc1)CCCC3` (stereo unspecified) here?
A: Its Potency is “inactive”.

Q: For `CC1(C)Nc2ccc(O)cc2-c2c1ssc2=S`, which Potency is on record?
A: Its Potency is inconclusive: 5.01 µM [activator, single point].

Q: For `COc1ccccc1NC(=O)C1=C(C)Nc2c(C(=O)Nc3ccc(F)cc3)cnn2C1c1ccc(Cl)cc1` (stereo unspecified), which Potency is on record?
A: The Potency was inconclusive: 2 µM [inhibitor, partial curve, poor fit].

Q: With `Cc1csc(NC(=O)CSc2nnc(-c3ccc(S(=O)(=O)N4CCCC4)cc3)o2)n1` as the compound, how does the Potency read?
A: Its Potency is “inactive”.

Q: With `CC(c1ccco1)N(C(=O)c1ccccc1NS(=O)(=O)c1cccc([N+](=O)[O-])c1)c1ccccn1` (stereo unspecified) as the compound, how does the Potency read?
A: Its Potency is inconclusive: 35.5 µM [inhibitor, single point].

Q: For `CCCC(=O)NC(c1ccccc1)c1ccc2cccnc2c1O` (stereo unspecified), which Potency is on record?
A: Its Potency is inconclusive: 2.82 µM [inhibitor, full curve, poor fit].
